According to PMC5415356:
Residue numbers refer to the chain shown, from its start. No constants are given. Whether binding was seen depends on the method and setting. Binding seen in cells or lysates may run through a third protein. Some binding calls cover weakened binding; strength is not graded here. Where a sequence is shown, tags or fusion partners need not be part of it.

Amino acid sequences for entries named in this document (tags omitted).
UniProt P46937: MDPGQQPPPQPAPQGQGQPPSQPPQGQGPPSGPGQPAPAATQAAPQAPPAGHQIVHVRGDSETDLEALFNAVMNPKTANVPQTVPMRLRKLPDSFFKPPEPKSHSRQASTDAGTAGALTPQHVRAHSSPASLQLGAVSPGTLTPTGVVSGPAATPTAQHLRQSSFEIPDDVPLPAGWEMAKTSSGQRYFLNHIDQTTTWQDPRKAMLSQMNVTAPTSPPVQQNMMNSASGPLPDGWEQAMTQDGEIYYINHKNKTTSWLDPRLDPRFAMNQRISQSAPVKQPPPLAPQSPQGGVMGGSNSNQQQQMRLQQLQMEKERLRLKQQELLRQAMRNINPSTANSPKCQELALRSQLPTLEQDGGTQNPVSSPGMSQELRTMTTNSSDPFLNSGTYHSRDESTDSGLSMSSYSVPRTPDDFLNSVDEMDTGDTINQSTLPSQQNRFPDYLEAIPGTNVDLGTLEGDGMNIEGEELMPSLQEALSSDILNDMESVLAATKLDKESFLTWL

Experiments:
[1] = target: T1, HA-Amot-p130^S176A (mouse (by the paper's numbering: Ser176 in mouse, Ser175 in human)) (UniProt Q8VHG2); experiment: co-IP; hSC2λ cells co-transfected with YAP and an Amot allele, fractionated into cytoplasmic, nuclear and plasma membrane fractions; Amot IP of each fraction, anti-YAP immunoblot
T1 sequence: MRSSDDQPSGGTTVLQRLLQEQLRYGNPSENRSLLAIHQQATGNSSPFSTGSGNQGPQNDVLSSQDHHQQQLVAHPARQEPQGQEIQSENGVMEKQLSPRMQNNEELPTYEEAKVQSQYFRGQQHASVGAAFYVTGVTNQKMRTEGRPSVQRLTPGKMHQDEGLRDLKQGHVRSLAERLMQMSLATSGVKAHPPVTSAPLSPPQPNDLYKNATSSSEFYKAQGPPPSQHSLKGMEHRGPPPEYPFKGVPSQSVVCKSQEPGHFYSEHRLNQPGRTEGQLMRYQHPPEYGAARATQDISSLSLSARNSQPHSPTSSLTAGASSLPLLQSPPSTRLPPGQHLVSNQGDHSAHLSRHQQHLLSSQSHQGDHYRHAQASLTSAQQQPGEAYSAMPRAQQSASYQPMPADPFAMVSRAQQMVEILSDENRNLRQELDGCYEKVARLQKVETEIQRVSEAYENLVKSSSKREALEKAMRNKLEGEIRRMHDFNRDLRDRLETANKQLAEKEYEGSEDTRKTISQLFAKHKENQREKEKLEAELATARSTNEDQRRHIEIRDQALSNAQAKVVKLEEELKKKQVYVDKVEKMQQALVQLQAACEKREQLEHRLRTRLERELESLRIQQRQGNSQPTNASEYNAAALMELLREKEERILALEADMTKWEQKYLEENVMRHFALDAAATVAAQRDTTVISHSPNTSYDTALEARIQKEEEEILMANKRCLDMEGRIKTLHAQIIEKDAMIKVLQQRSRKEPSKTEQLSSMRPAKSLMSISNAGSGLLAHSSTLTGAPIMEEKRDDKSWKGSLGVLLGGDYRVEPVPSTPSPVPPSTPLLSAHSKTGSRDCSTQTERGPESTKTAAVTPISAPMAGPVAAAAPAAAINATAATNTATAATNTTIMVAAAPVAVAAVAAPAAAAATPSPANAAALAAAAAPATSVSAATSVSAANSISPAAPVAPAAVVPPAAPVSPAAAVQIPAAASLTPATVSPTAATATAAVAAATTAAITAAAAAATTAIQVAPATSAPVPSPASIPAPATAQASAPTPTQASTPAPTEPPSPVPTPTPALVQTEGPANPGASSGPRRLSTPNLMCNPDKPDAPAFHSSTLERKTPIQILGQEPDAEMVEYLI

[2] = target: T2, HA-Amot-p130 (mouse (by the paper's numbering: Ser176 in mouse, Ser175 in human)) (UniProt Q8VHG2); experiment: co-IP; HepG2 cells co-transfected with YAP and an Amot allele, fractionated into cytoplasmic, nuclear and plasma membrane fractions; Amot IP of each fraction, anti-YAP immunoblot
T2 sequence: T1 sequence with A176S

binding [1]: binds
binding [2]: binds
Substance: V5-tagged YAP (from UniProt P46937 1-504)
